Reference: patent US20260042862A1
Results are given in words; binding and its absence hold for the method and conditions named. Some binding calls cover weakened binding; strength is not graded here.

Chains of the proteins cited; added tags and fusions are not shown. Residues count along the entry.
UniProt P51654, residues 25-559: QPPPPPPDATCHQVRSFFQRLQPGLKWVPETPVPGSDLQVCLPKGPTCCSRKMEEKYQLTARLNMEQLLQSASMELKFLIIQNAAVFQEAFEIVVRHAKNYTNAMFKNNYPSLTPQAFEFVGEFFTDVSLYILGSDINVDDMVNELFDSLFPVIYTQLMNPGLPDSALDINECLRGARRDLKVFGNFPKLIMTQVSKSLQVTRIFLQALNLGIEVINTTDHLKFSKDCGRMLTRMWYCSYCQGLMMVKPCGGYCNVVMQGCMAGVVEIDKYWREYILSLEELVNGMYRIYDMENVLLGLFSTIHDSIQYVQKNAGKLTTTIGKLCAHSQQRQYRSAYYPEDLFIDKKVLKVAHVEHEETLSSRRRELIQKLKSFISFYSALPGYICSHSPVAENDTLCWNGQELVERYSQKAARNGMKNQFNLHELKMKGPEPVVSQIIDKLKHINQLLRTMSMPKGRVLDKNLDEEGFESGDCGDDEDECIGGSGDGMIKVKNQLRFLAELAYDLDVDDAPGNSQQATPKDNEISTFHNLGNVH
UniProt Q8CFZ4: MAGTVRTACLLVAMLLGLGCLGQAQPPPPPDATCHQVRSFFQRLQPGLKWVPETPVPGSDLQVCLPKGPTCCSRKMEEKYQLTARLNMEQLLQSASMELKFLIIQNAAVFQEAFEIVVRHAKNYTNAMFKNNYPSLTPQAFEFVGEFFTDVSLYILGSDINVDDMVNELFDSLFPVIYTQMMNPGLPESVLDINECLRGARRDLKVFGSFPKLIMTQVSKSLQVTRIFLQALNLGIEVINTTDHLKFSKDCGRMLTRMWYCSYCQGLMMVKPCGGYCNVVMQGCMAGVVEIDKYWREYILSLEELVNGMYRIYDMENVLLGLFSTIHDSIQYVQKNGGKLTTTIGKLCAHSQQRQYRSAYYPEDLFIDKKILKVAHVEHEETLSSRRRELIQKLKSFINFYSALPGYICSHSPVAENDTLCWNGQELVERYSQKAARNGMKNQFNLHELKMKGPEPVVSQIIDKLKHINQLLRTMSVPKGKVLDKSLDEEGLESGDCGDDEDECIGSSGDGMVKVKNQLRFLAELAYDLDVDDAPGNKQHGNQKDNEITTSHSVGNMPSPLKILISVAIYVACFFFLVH

Columns and labels:
[1] = target: recombinant human GPC-3 protein (human) (UniProt P51654); assay: ELISA on recombinant human GPC-3
[2] = target: recombinant human GPC-3 protein (human) (UniProt P51654); assay: cross-reactivity binding ELISA with biotinylated recombinant GPC-3, absorbance 450nm-570nm
[3] = target: recombinant human GPC-3 protein (human) (UniProt P51654); assay: binding ELISA, absorbance 450nm-570nm against Biotin-hGPC-3 (nM)
[4] = target: recombinant mouse GPC-3 protein (mouse) (UniProt Q8CFZ4); assay: cross-reactivity ELISA, biotinylated recombinant GPC-3
[5] = target: recombinant cynomolgus GPC-3 protein (cynomolgus); assay: as above
[6] = target: recombinant mouse GPC-3 protein (mouse) (UniProt Q8CFZ4); assay: cross-reactivity binding ELISA with biotinylated recombinant GPC-3, absorbance 450nm-570nm
[7] = target: recombinant cynomolgus GPC-3 protein (cynomolgus); assay: as above
[8] = target: recombinant mouse GPC-3 protein (mouse) (UniProt Q8CFZ4); assay: restated in Example 9 (cross-reactivity of Example 4)

Measured: binding

B1: anti-GPC-3 IgG1 clone 1D8 (antibody, V domains shown)
VH: QVQLVQSGAEVKKPGASVKVSCKASGYTFTSYGISWVRQAPGQGLEWMGWISAYNGNTNYAQKLQGRVTMTTDTSTSTAYMELRSLRSDDTAVYYCARDGGLIAAAFGYYYYGMDVWGQGTT
VL: EIVLTQSPGTLSLSPGERATLSCRASQSVSSYLAWYQQKPGQAPRLLIYGASSRATGIPDRFSGSGSGTDFTLTISRLEPEDFAVYYCQQYERPPTFGGGTK
binds: [1] | [2] | [3]

B2: anti-GPC-3 IgG1 clone 1D3 (antibody, V domains shown)
VH: QVQLVQSGAEVKKPGASVKVSCKASGYTFTGYYMHWVRQAPGQGLEWMGWINPNSGGTNYAQNFQGRVTITRDTSASTAYMELSSLRSEDTAVYYCARGSWQTGSFDIWGQGTT
VL: SYELTQPPSVSGTPGQSVTISCSGSNSNLGSNYVYWYQVVPGTAPKLVIYRNKYRPPGVPDRFSGSKSGTSASLAISGLRSDDEAEYYCSGWDDSLSGRLFGGGTK
not listed: [8]
binds: all other assays above

B3: anti-GPC-3 IgG1 clone 1F1 (antibody, V domains shown)
VH: QVQLVQSGAEVKKPGASVKVSCKASGYTFTSYGISWVRQAPGQRLEWMGWINAGNGNTKYSQKFQGRVTITRDTSASTAYMELSSLRSEDTAVYYCATVVYWGQGTL
VL: EIVLTQSPLSLPVTPGEPASISCRSSQSLLHSNGYNYLDWYLQKPGQSPQILIYLGSHRASGVPDRFSGSASGTDFTLKISRVEAEDVGVYYCMQALQTPLTFGGGTK
binds: all assays above

B4: anti-GPC-3 IgG1 clone 1H1 (antibody, V domains shown)
VH: QVQLQESGAGLLRPSETLSLTCAVYGGSFSGYYWSWIRQPPGKGLEWLGEISHSGSTNYNPSLKSRVTISVDTSKNQFSLKLSSVTAADAAVYYCARWVWSGYYNGEGYFDLWGRGTL
VL: ETTLTQSPGTLSLSPGERATLSCRASQSVSSSYLAWYQQKPGQAPRLLIYGASSRATGIPDRFSGRGSGTDFTLTITRLEPEDFAVYYCQYYGSSPRTFGQGTK
binds: all assays above

B5: anti-GPC-3 IgG1 clone 1E1 (antibody, V domains shown)
VH: QVQLQQWGAGLLKPSETLSLTCAVYGGSFSGYYWSWIRQPPGKGLEWIGEINHSGSTNYNPSLKSRVTISVDTSKNQFSLKLSSVTAADTAVYYCARLYKRRPFDYWGQGTL
VL: VTTLTQSPGTLSLSPGERATLSCRASESVSSRYLAWYQQRPGQAPRLLIYGASRRATGSPERFSGGGSGTDFTLTISRLEPEDFAVYYCQHYGNSPGTFGQGTK
not listed: [1] | [8]
binds: all other assays above

B6: anti-GPC-3 IgG1 clone 1F4 (antibody, V domains shown)
VH: QVQLQQWGAGLLKPSETLSLTCAVYGGSFSGYYWSWIRQPPGKGLEWIGEINHSGSTNYNPSLKSRVTISVDTSKNQFSLKLSSVTVADTAVYYCARLYKRRPFDYWGQGTL
VL: ETTLTQSPGTLSLSPGERATLSCRASQSVSSTYLAWYQQKPGQAPRLLIYGASRRATGSPERFSGGGSGTDFTLTISRLEPEDFAVYYCQHYGNSPGTFGQGTK
not listed: [8]
binds: all other assays above

B7: anti-GPC-3 IgG1 clone 3G12 (antibody, V domains shown)
VH: QVQLQQWGAGLLKPSETLSLTCAVYGGSFSGYYWSWIRQPPGKGLEWIGEINHSGSTNYNPSLKSRVTISVDTSKNQFSLKLSSVTAADTAVYYCARLYKRRPFDYWGQGTL
VL: ETTLTQSPGTLSLSPGERATLSCRASQSVSSSYLAWYQQKRGQAPRLLIYGASRRATGIPDRFSGSGSGSDFTLTISRLEPEDFAVYYCQQYGSSPSTFGQGTK
not listed: [8]
binds: all other assays above

B8: anti-GPC-3 IgG1 clone 4G4 (antibody, V domains shown)
VH: QVQLQQWGAGLLKPSETLSLTCAVYGGSFSGYYWSWIRQPPGKGLEWIGEINHSGSTNYNPSLKSRVTISVDTSKNQFSLKLSSVTAADTAVYYCARLYKRRPFDYWGQGTL
VL: ETTLTQSPGTLSLSPGERATLSCRASQSVSSSYLAWYQQKPGQAPRLLIYNASRRATGIPDRFSGSGSGADFTLTISRLDPEDFAVYFCQQYGSSPQTFGQGTK
not listed: [8]
binds: all other assays above

B9: anti-GPC-3 IgG1 clone 1A12 (antibody, V domains shown)
VH: QVQLQQWGAGLLKPSETLSLTCAAYGGSFSGYYWSWIRQPPGKGLEWIGEINHSGSTNYNPSLKSRVTISVDTSKNQFSLKLSSVTAADTAVYYCARLYKRRPFDYWGQGTL
VL: ETTLTQSPGTLSLSPGERATLSCRASQSISSIYLAWYQQKPGQAPRLLIYGASRRATGIPDRFSGSGSGTDFTLTISRLEPEDFAVYYCQQYGSSLRTFGQGTK
not listed: [8]
binds: all other assays above

B10: anti-GPC-3 IgG1 clone 1C4 (antibody, V domains shown)
VH: QVQLVQSGGGLVKPGRSLRLSCTASGFTFGDYAMHWVRQAPGKGLEWVAVISYDGSNKYYADSVKGRFTISRDNSKNTLYLQMNSLRAEDTAVYYCARDYGDYYRPYGMDVWGQGTT
VL: DIQMTQSPSTLSASVGDRVTITCRASQSISKWLAWYQHKPGKAPKVLIYKASTLQSGVPSRFSGSGSGTEFTLTISSLQPEDFATYYCQQLNSYPLTFGGGTK
binds: all assays above

B11: anti-GPC-3 IgG1 clone 3C12 (antibody, V domains shown)
VH: QVTLKESGPTLVKPTQTLTLTCTFSGFSLSTSGVGVGWIRQPPGKALEWLALIYWNDDKRYSPSLKSRLTITKDTSKNQVVLTMTNMDPVDTATYYCAHSRIAARRVLDYWGQGTL
VL: QSVLTQPPSASVAPGKTARITCGGNNIGSKSVHWYQQKPGQSPVLVIYQDTKRPSGIPERFSGSNSGNTATLTISGAQPMDEADYYCQAWYSTIMVFGGGTK
not listed: [8]
binds: all other assays above

B12: anti-GPC-3 IgG1 clone 1H10 (antibody, V domains shown)
VH: QLQLQESGGGLVQPGGSLRLSCAASGFTFSSYVMSWVRQAPGKGLEWVSTISGSGGSTYYADSVKGRFTISRDNSKNTLYLQMSSLRAEDTAVYYCVMGWYFDLWGRGTL
VL: EIVLTQSPGTLSLSPGERATLSCRASQSVSSSYLAWYQQKPGQAPRLLIYDASNRATGIPARFSGSGSGTDFTLTISSLEPEDFAVYYCQQRSNWPPRATFGQGTR
not listed: [8]
binds: all other assays above

B13: anti-GPC-3 IgG1 clone 5C4 (antibody, V domains shown)
VH: QVQLQESGGGLVKPGGSLRLSCAASGFTFSSYSMNWVRQAPGKGLEWVAVISYDGSNKYYADSVKGRFTISRDNSKNTLYLQMNSLRTEDTAVYYCARGAGPFTGFNWFDPWGQGTL
VL: EIVLTQSPATLSVSPGERATLSCRASQSVDSYLAWYQQKPGQAPRLLIYSASTRATGIPARFSGTGSGTEFTLTISSLQSEDFAVYYCQQYKRWPTWTFGLGTR
binds: all assays above
